PubChem BioAssay AID686938 – Drosophila RNAi Screening Center | 2013

Purpose: 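Looking for CRAC channel components and the factors controlling them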 (primary screen)
Cell system: Drosophila S2R+ cells
Reagent: long dsRNA against Drosophila genes, about 0.25 µg dsRNA per well, roughly 10,000 cells
Time to read-out: 5 days of knock-down before the calcium assay
Treatment: thapsigargin (SERCA pump blocker) to empty calcium stores; entry signal taken 4 min after adding it
Read-out: 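Per-well fluo-4 fluorescence in two replicates, unnormalised, measured in resting cells and 4 min after store depletion by the SERCA blocker thapsigargin; ratio of the two present in few wells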
Reading the numbers: calcium entry signal: higher = stronger calcium signal after store depletion; resting calcium signal: higher = higher resting calcium signal
Call rule: 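Called when the plate z-score of the entry-to-rest ratio, mean of duplicates, falls below −3; wells with low overall dye signal (Fmax z below −2) or more than five off-targets excluded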
Calls: active = strongly reduced calcium entry; inactive = no strong reduction
The deposit covers about 23,000 reagents; this is an unselected part of those that have a named target and a result. Of all reagents, 75 (0.33%) are marked active. 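Raw plate signals without normalisation; calls rest on plate z-scores that were not deposited; ratio present for only 364 wells.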 Unmarked entries are inactive. Reagents against one gene are numbered here. The record does not give: the dose of the treatment.

| target gene | reagent no. | calcium entry signal, replicate 1 (fluorescence units) | calcium entry signal, replicate 2 (fluorescence units) | resting calcium signal, replicate 1 (fluorescence units) | resting calcium signal, replicate 2 (fluorescence units) |
| --- | --- | --- | --- | --- | --- |
| Tssk (GeneID 42233) | 1 | 3.96e7 | 4.42e7 | 4.50e7 | 2.12e7 |
| rdgB (GeneID 32340) | 1 | 4.11e7 | 2.65e7 | 1.79e7 | 1.39e7 |
| CG18747 (GeneID 59143) | 1 | 3.96e7 | 2.90e7 | 1.97e7 | 1.57e7 |
| CG12909 (GeneID 36087) | 1 | 4.75e7 | 4.56e7 | 2.19e7 | 2.07e7 |
| AnxB11 (GeneID 32612) | 1 | 4.00e7 | 3.82e7 | 1.77e7 | 1.85e7 |
| CG32117 (GeneID 317864) | 1 | 4.10e7 | 3.82e7 | 2.45e7 | 1.83e7 |
| Ssu72 (GeneID 32973) | 1 | 3.60e7 | 3.91e7 | 1.98e7 | 1.70e7 |
| Tre1 (GeneID 140439) | 1 | 1.90e7 | 2.94e7 | 1.17e7 | 1.70e7 |
| CG31467 (GeneID 318751) | 1 | 3.39e7 | 3.48e7 | 1.75e7 | 1.88e7 |
| CG43183 (GeneID 12798381) | 1 | 2.25e7 | 4.61e7 | 1.29e7 | 4.52e7 |
| PIP5K59B (GeneID 37633) | 1 | 3.78e7 | – | 2.01e7 | – |
| PIP5K59B (GeneID 37633) | 2 | 3.66e7 | 4.40e7 | 1.97e7 | 2.16e7 |
| CG42288 (GeneID 36559) | 1 | 3.70e7 | 3.19e7 | 1.77e7 | 1.54e7 |
| stj (GeneID 36526) | 1 | 3.30e7 | 3.75e7 | 1.48e7 | 1.58e7 |
| CG11294 (GeneID 31807) | 1 | 3.38e7 | 3.20e7 | 1.80e7 | 1.79e7 |
| PpY-55A (GeneID 48532) | 1 | 3.16e7 | 3.35e7 | 1.36e7 | 1.61e7 |
| PpY-55A (GeneID 48532) | 2 | 4.07e7 | 3.15e7 | 2.27e7 | 1.46e7 |
| PK2-R1 (GeneID 41639) | 1 | 2.93e7 | 5.56e7 | 1.46e7 | 6.67e7 |
| Dtwd2 (GeneID 40873) | 1 | 4.30e7 | 4.59e7 | 2.15e7 | 2.12e7 |
| GluRIIC (GeneID 33275) | 1 | 5.17e7 | – | 2.67e7 | – |
| ref(2)P (GeneID 35246) | 1 | 4.74e7 | 4.53e7 | 1.94e7 | 1.91e7 |
| CG11327 (GeneID 33940) | 1 | 2.75e7 | 2.64e7 | 1.38e7 | 1.33e7 |
| puml (GeneID 35733) | 1 | 2.47e7 | 3.12e7 | 1.19e7 | 1.31e7 |
| Polr1C (GeneID 33712) | 1 | 2.07e7 | – | 1.10e7 | – |
| ebd1 (GeneID 38082) | 1 | 4.22e7 | 3.88e7 | 2.13e7 | 1.98e7 |
| CG5267 (GeneID 36875) | 1 | 4.49e7 | 4.79e7 | 1.87e7 | 2.27e7 |
| shg (GeneID 37386) | 1 | 3.95e7 | – | 1.89e7 | – |
| cathD (GeneID 45268) | 1 | 2.52e7 | 2.86e7 | 1.18e7 | 1.21e7 |
| CG8180 (GeneID 36713) | 1 | 2.88e7 | 2.87e7 | 1.33e7 | 1.41e7 |
| CG8180 (GeneID 36713) | 2 | 3.74e7 | 3.06e7 | 1.81e7 | 1.40e7 |
| Osi13 (GeneID 40769) | 1 | 3.86e7 | 2.15e7 | 1.72e7 | 1.05e7 |
| CG32267 (GeneID 317946) | 1 | 4.45e7 | 4.08e7 | 2.78e7 | 1.93e7 |
| CG12682 (GeneID 31415) | 1 | 3.46e7 | 4.89e7 | 1.77e7 | 2.27e7 |

2 entries from above, set out differently.
puml (GeneID 35733)
- calcium entry signal, replicate 1 (fluorescence units): 2.47e7
- calcium entry signal, replicate 2 (fluorescence units): 3.12e7
- resting calcium signal, replicate 1 (fluorescence units): 1.19e7
- resting calcium signal, replicate 2 (fluorescence units): 1.31e7

Polr1C (GeneID 33712)
- calcium entry signal, replicate 1 (fluorescence units): 2.07e7
- resting calcium signal, replicate 1 (fluorescence units): 1.10e7

Further results follow:
| target gene | reagent no. | calcium entry signal, replicate 1 (fluorescence units) | calcium entry signal, replicate 2 (fluorescence units) | resting calcium signal, replicate 1 (fluorescence units) | resting calcium signal, replicate 2 (fluorescence units) |
| --- | --- | --- | --- | --- | --- |
| Or35a (GeneID 34918) | 1 | 5.07e7 | 3.58e7 | 2.16e7 | 1.74e7 |
| ItgaPS4 (GeneID 36693) | 1 | 3.46e7 | 4.79e7 | 1.90e7 | 1.95e7 |
| sphinx2 (GeneID 38833) | 1 | 3.59e7 | 5.10e7 | 1.78e7 | 2.80e7 |
| SpdS (GeneID 41167) | 1 | 3.70e7 | 3.65e7 | 1.90e7 | 1.89e7 |
| CG17376 (GeneID 59227) | 1 | 2.67e7 | 2.89e7 | 1.34e7 | 1.33e7 |
| galene (GeneID 38133) | 1 | 3.01e7 | 4.19e7 | 1.58e7 | 1.89e7 |
| galene (GeneID 38133) | 2 | 2.98e7 | 4.36e7 | 1.50e7 | 2.00e7 |
| Mef2 (GeneID 36032) | 1 | 4.23e7 | 3.21e7 | 1.72e7 | 1.53e7 |
| CG42268 (GeneID 39145) | 1 | 2.74e7 | 4.59e7 | 1.46e7 | 1.84e7 |
| CG42268 (GeneID 39145) | 2 | 2.60e7 | 4.53e7 | 1.38e7 | 1.77e7 |
| CG42268 (GeneID 39145) | 3 | 4.40e7 | 3.73e7 | 2.34e7 | 1.77e7 |
| CG15800 (GeneID 37763) | 1 | 4.20e7 | 4.28e7 | 1.98e7 | 2.16e7 |
| Kr-h2 (GeneID 33859) | 1 | 3.51e7 | 3.41e7 | 1.86e7 | 1.61e7 |
| eca (GeneID 41177) | 1 | 2.95e7 | 4.14e7 | 1.57e7 | 2.24e7 |
| RnpS1 (GeneID 41147) | 1 | 4.13e7 | 4.57e7 | 1.81e7 | 2.15e7 |
| RpL13 (GeneID 34329) | 1 | 1.12e7 | 1.72e7 | 8.16e6 | 1.12e7 |
| CG12391 (GeneID 36170) | 1 | 2.67e7 | 2.53e7 | 1.26e7 | 1.18e7 |
| WASp (GeneID 43402) | 1 | 3.71e7 | 4.84e7 | 1.84e7 | 1.85e7 |
| LysX (GeneID 38122) | 1 | 3.18e7 | 3.13e7 | 1.42e7 | 1.49e7 |
| Dhc98D (GeneID 43379) | 1 | 3.65e7 | 5.16e7 | 1.80e7 | 2.07e7 |
| Nepl16 (GeneID 43014) | 1 | 4.73e7 | 5.11e7 | 2.43e7 | 2.24e7 |
| lawc (GeneID 318164) | 1 | 3.72e7 | 2.32e7 | 1.95e7 | 1.12e7 |
| lawc (GeneID 318164) | 2 | 5.22e7 | 3.33e7 | 2.49e7 | 1.48e7 |
| Mal-A7 (GeneID 35829) | 1 | 3.42e7 | 4.06e7 | 1.67e7 | 1.67e7 |
| CG8475 (GeneID 34114) | 1 | 4.31e7 | – | 2.51e7 | – |
